Experimental data from patent US20100119620A1, “SUPPRESSING MICROBIAL GROWTH IN PULP AND PAPER” (priority 2006, published 2010).

Assays:
[1] = Vapor-phase corrosion of carbon steel
[2] = Compatibility with optical brightening agent: absorbance (350 nm) of Leucophor AP after halogen exposure; type: physicochemical; conditions: 60 minutes

[Na+].[O-]Cl [NaOC1, sodium hypochlorite]
Vapor-Phase Corrosion ([1]; 1 ppm Total C12): 1.8 mpy | Vapor-Phase Corrosion ([1]; 2.5 ppm Total C12): 1.7 mpy | % Absorbance Relative to Untreated Control Leucophor AP ([2]; 2.5 ppm Total C12, Leucophor AP 50 ppm): 60% | % Absorbance Relative to Untreated Control Leucophor AP ([2]; 5 ppm Total C12, Leucophor AP 50 ppm): 41% | % Absorbance Relative to Untreated Control Leucophor AP ([2]; 10 ppm Total C12, Leucophor AP 50 ppm): 24%
